In PubChem BioAssay AID200 (DTP/NCI, 2004):
The list is a part of this screen's results and no random one: it is rich in T/C values a quarter to a half above the control, in often repeated tests (any T/C) and in doses without a T/C. Further doses and runs are listed elsewhere. T/C is the treated group as % of the vehicle group. Some doses have a count of surviving animals in place of a T/C: the source files T/C as zero there, which appears to mark a toxic dose or a test without result, not a measured value. Some survivor counts are full or nearly so, which does not show that the dose was tolerated: survival well below the control is almost never listed, so the zero probably covers shortened survival too. Counts of survivors are from the toxicity check (mostly the fifth day) where no day follows; animals may have died later. Schedule codes are those of the source, taken here to give the interval after Q, in days (D) or hours (H), and the number of doses after X. Counts like (3×) stand for listed records that agree. Some entries hold several experiments; the values are given in rising order. Where survival is the endpoint, the PubChem record calls one and a half times the control and up active, and a quarter to a half above the control has no call in these data; cut-offs in other NCI protocols can differ. Some T/C values carry the count of animals alive at the toxicity check (mostly the fifth day); without a count, all were alive then.

Tested on: B6C3F1 mice, B16 melanoma ip, median survival T/C
Assay: NCI In Vivo Anticancer Drug Screen. Data for tumor model B16 Melanoma (intraperitoneal) in B6C3F1 mice
Settings: T/C endpoint: median survival time, higher T/C = longer survival
Description: The antitumor activity of compounds was measured in mice bearing transplantable tumors. Survival or tumor size were measured and the results are expressed as the measurement made in the treated group (T) divided by the measurement made in the vehicle treated control group (C). The tumor model used in this assay is B16 Melanoma (intraperitoneal) in B6C3F1 mice

[1] = dose: 200.0 mg/kg/injection, schedule: Q01DX009 (ip), vehicle: saline with Tween-80
[2] = dose: 400.0 mg/kg/injection, schedule: Q01DX009 (ip), vehicle: saline with Tween-80
[3] = dose: 50.0 mg/kg/injection, schedule: Q01DX009 (ip), vehicle: saline with Tween-80
[4] = dose: 100.0 mg/kg/injection, schedule: Q01DX009 (ip), vehicle: saline with Tween-80
[5] = dose: 25.0 mg/kg/injection, schedule: Q01DX009 (ip), vehicle: saline
[6] = dose: 12.5 mg/kg/injection, schedule: Q01DX009 (ip), vehicle: water
[7] = dose: 25.0 mg/kg/injection, schedule: Q01DX009 (ip), vehicle: water
[8] = dose: 100.0 mg/kg/injection, schedule: Q01DX009 (ip), vehicle: Klucel (hydroxypropylcellulose) (HPC)
[9] = dose: 200.0 mg/kg/injection, schedule: Q01DX009 (ip), vehicle: Klucel (hydroxypropylcellulose) (HPC)
[10] = dose: 400.0 mg/kg/injection, schedule: Q01DX009 (ip), vehicle: Klucel (hydroxypropylcellulose) (HPC)
[11] = dose: 12.5 mg/kg/injection, schedule: Q01DX009 (ip), vehicle: Klucel (hydroxypropylcellulose) (HPC)
[12] = dose: 50.0 mg/kg/injection, schedule: Q01DX009 (ip), vehicle: Klucel (hydroxypropylcellulose) (HPC)
[13] = dose: 30.0 mg/kg/injection, schedule: Q01DX009 (ip), vehicle: Klucel (hydroxypropylcellulose) (HPC)
[14] = dose: 60.0 mg/kg/injection, schedule: Q01DX009 (ip), vehicle: Klucel (hydroxypropylcellulose) (HPC)

O=C(NC(CO)C(=O)O)OCc1ccccc1 (stereo not given)
survivor count [1]: 10 of 10 | survivor count [2]: 10 of 10

O=NN(CCCl)C(=O)NC1CCCCC1
T/C (dose: 1.0 mg/kg/injection, schedule: Q01DX009 (ip), vehicle: Klucel (hydroxypropylcellulose) (HPC)): 98 (2×), 103, 104, 106 [9 of 10 alive], 108, 114 % of control (2×) | T/C (dose: 2.0 mg/kg/injection, schedule: Q01DX009 (ip), vehicle: Klucel (hydroxypropylcellulose) (HPC)): 105, 106, 107 (2×), 108, 110, 116, 117 % of control (2×) | T/C (dose: 4.0 mg/kg/injection, schedule: Q01DX009 (ip), vehicle: Klucel (hydroxypropylcellulose) (HPC)): 107, 110, 110 [9 of 10 alive], 112, 118, 120 [9 of 10 alive], 122, 122 [7 of 10 alive], 123 % of control | T/C (dose: 8.0 mg/kg/injection, schedule: Q01DX009 (ip), vehicle: Klucel (hydroxypropylcellulose) (HPC)): 115, 129 [8 of 10 alive], 131, 146, 168 (2×), 190, 195, 216 % of control | T/C (dose: 16.0 mg/kg/injection, schedule: Q01DX009 (ip), vehicle: Klucel (hydroxypropylcellulose) (HPC)): 94, 108, 109, 130, 142, 170, 173, 209, 222 % of control | T/C (dose: 25.0 mg/kg/injection, schedule: Q01DX001 (ip), vehicle: carboxymethylcellulose (CMC)): 129 % of control [9 of 10 alive on day 9] | T/C (dose: 25.0 mg/kg/injection, schedule: Q01DX005 (ip), vehicle: carboxymethylcellulose (CMC)): 129 % of control | survivor count (dose: 32.0 mg/kg/injection, schedule: Q01DX009 (ip), vehicle: Klucel (hydroxypropylcellulose) (HPC)): 10 of 10

COc1ccc2c(c1)n([O-])c1ccccc1[n+]2=O
T/C (dose: 18.0 mg/kg/injection, schedule: Q01DX009 (ip), vehicle: saline with Tween-80): 125 % of control | T/C [3]: 134 % of control | survivor count [4]: 7 of 10 | survivor count (dose: 138.88 mg/kg/injection, schedule: Q01DX009 (ip), vehicle: saline with Tween-80): 6 of 10 | survivor count (dose: 138.89 mg/kg/injection, schedule: Q01DX009 (ip), vehicle: saline with Tween-80): 9 of 10 | survivor count [1]: 0 of 10

Nc1nc(-c2ccc(S(=O)(=O)O)cc2)cc(=O)[nH]1
T/C (dose: 13.25 mg/kg/injection, schedule: Q01DX009 (ip), vehicle: saline): 130 % of control

CC(=O)Nc1cscc1NC(C)=O
survivor count [4]: 10 of 10

C(=N/NC1=NCCN1)/c1c2ccccc2c(/C=N\NC2=NCCN2)c2ccccc12
survivor count [5]: 10 of 10 | survivor count (dose: 50.0 mg/kg/injection, schedule: Q01DX009 (ip), vehicle: saline): 10 of 10

CCN(Cc1ccc(Cl)c(Cl)c1)c1ccc2nc(N)nc(N)c2c1C
T/C (dose: 1.56 mg/kg/injection, schedule: Q01DX009 (ip), vehicle: distilled water + Tween-80): 132 % of control | T/C (dose: 6.25 mg/kg/injection, schedule: Q01DX009 (ip), vehicle: distilled water + Tween-80): 140 % of control | T/C (dose: 6.25 mg/kg/injection, schedule: Q01DX009 (ip), vehicle: water, evaluated on day 45): 131 % of control | T/C (dose: 6.25 mg/kg/injection, schedule: Q01DX009 (ip), vehicle: water, evaluated on day 60): 125 % of control | T/C (dose: 12.5 mg/kg/injection, schedule: Q01DX009 (ip), vehicle: distilled water + Tween-80): 126 % of control | T/C [6]: 130 % of control | survivor count [6]: 10 of 10 | survivor count [7]: 10 of 10 (2×) | survivor count (dose: 50.0 mg/kg/injection, schedule: Q01DX009 (ip), vehicle: water): 8 of 10 and 10 of 10 (2×) | survivor count (dose: 100.0 mg/kg/injection, schedule: Q01DX009 (ip), vehicle: water): 5 of 10, 7 of 10, 9 of 10

CC(O)C(NC(=O)OCC1c2ccccc2-c2ccccc21)C(=O)O (stereo not given)
T/C [8]: 126 % of control | survivor count [9]: 8 of 10 | survivor count [10]: 0 of 10

CCC(=O)OCC1OC(n2cnc3c(=S)nc(N)[nH]c32)C(OC(=O)CC)C1OC(=O)CC (stereo not given)
T/C [11]: 125 % of control | survivor count [12]: 10 of 10 | survivor count [8]: 10 of 10

CCCCC(NC(=O)C(F)(F)F)C(=O)O (stereo not given)
survivor count [4]: 10 of 10 | survivor count [1]: 10 of 10 | survivor count [2]: 10 of 10

C=C(C)C(=O)O[C@H]1CC2=C[C@@H](C[C@@]3(C)O[C@@H]3[C@H]3OC(=O)C(=C)[C@@H]31)OC2=O
survivor count [13]: 9 of 10 | survivor count [14]: 0 of 10

C=CCCC(=O)CCCC(=O)O[C@@H]1[C@@H]2[C@H](CC1(C)C)[C@H](O)[C@@]13O[C@@H]1[C@H](O)[C@@]1(CO1)[C@@]23C
survivor count (dose: 100.0 micrograms/kg/injection, schedule: Q01DX009 (ip), vehicle: Klucel (hydroxypropylcellulose) (HPC)): 10 of 10

S=c1nc[nH]c2nc[nH]c12
T/C (dose: 15.0 mg/kg/injection, schedule: Q01DX009 (ip), vehicle: Klucel (hydroxypropylcellulose) (HPC)): 90 [9 of 10 alive], 101, 103, 107, 110, 113 % of control | T/C [13]: 98, 103, 110 [9 of 10 alive], 114, 115 % of control | survivor count [13]: 10 of 10 | survivor count [12]: 10 of 10 | T/C [14]: 88, 93 [9 of 10 alive], 105 % of control | survivor count [14]: 10 of 10 | survivor count [8]: 10 of 10 | survivor count (dose: 120.0 mg/kg/injection, schedule: Q01DX009 (ip), vehicle: Klucel (hydroxypropylcellulose) (HPC)): 10 of 10 | survivor count [9]: 10 of 10 | survivor count (dose: 240.0 mg/kg/injection, schedule: Q01DX009 (ip), vehicle: Klucel (hydroxypropylcellulose) (HPC)): 9 of 10 and 10 of 10

ClCC[Se](Cl)(Cl)c1ccccc1
T/C (dose: 3.12 mg/kg/injection, schedule: Q01DX009 (ip), vehicle: saline): 130 % of control | survivor count (dose: 6.25 mg/kg/injection, schedule: Q01DX009 (ip), vehicle: saline): 9 of 9 | survivor count (dose: 12.0 mg/kg/injection, schedule: Q01DX009 (ip), vehicle: saline): 2 of 10 | survivor count (dose: 12.5 mg/kg/injection, schedule: Q01DX009 (ip), vehicle: saline): 6 of 9 | survivor count [5]: 1 of 9

O=NNc1ccc(Br)cn1
T/C (dose: 6.25 mg/kg/injection, schedule: Q01DX009 (ip), vehicle: water): 125 and 132 % of control | survivor count [7]: 10 of 10

CCCC(=O)O.CCCC(=O)O.CCCC(=O)O.CCCC(=O)O.[Rh].[Rh]
survivor count (dose: 1.0 mg/kg/injection, schedule: Q01DX009 (ip), vehicle: saline + alcohol): 9 of 10

OC(CN1CCCC2CCCCC21)c1cc2ccccc2c2ccccc12 (stereo not given)
survivor count [1]: 7 of 7 | survivor count [2]: 0 of 7

Oc1c(Cl)cc(C(c2cc(Cl)c(O)c(Cl)c2)C(c2cc(Cl)c(O)c(Cl)c2)c2cc(Cl)c(O)c(Cl)c2)cc1Cl
survivor count [10]: 4 of 10 and 8 of 10

O=C(O)/C=C/C(=O)Nc1ccc(Cl)c(Cl)c1
T/C [11]: 94, 97, 106, 142 % of control | T/C (dose: 25.0 mg/kg/injection, schedule: Q01DX009 (ip), vehicle: Klucel (hydroxypropylcellulose) (HPC)): 91 [9 of 10 alive], 102, 103, 152 % of control | T/C [12]: 124, 125, 126, 128, 142 % of control | T/C [8]: 108, 114, 116 [9 of 10 alive], 121, 134 % of control | T/C [9]: 116, 134, 136, 164 % of control | survivor count [9]: 7 of 10 | survivor count [10]: 4 of 10

COC1=C(OC)C(=O)C(SC/C=C(\C)CCCC(C)CCCC(C)CCCC(C)C)=CC1=O (stereo not given)
T/C [4]: 130 % of control | survivor count [1]: 10 of 10

O=S1(=O)C=C(c2ccccc2)C(c2ccccc2)=C1
survivor count (dose: 25.0 mg/kg/injection, schedule: Q01DX009 (ip), vehicle: saline with Tween-80): 9 of 10 | survivor count [3]: 9 of 10 | survivor count [4]: 0 of 10 and 9 of 10

COc1cc(C(=O)N/N=C/c2cccc([N+](=O)[O-])c2)cc(OC)c1OC
survivor count [3]: 10 of 10 | survivor count [4]: 10 of 10 | survivor count [1]: 10 of 10 | survivor count [2]: 10 of 10

Nc1nc2nc[nH]c2c(=O)[nH]1
survivor count [1]: 10 of 10
